These are yes or no findings as the source states them, for the method shown. Some binding calls cover weakened binding; strength is not graded here. Sequences can lack the tags named with a protein.
T1: 3Sec17:Sec18 complex (yeast (Saccharomyces Genome Database ids)) (UniProt P32602+P18759)
T1 sequence 1: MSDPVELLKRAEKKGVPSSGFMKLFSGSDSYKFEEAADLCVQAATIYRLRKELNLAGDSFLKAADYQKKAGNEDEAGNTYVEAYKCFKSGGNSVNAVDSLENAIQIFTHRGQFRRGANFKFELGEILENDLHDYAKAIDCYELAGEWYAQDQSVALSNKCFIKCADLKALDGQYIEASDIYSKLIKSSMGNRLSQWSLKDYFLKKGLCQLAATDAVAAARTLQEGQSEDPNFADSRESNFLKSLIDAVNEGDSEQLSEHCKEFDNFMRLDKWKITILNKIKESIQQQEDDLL
T1 sequence 2: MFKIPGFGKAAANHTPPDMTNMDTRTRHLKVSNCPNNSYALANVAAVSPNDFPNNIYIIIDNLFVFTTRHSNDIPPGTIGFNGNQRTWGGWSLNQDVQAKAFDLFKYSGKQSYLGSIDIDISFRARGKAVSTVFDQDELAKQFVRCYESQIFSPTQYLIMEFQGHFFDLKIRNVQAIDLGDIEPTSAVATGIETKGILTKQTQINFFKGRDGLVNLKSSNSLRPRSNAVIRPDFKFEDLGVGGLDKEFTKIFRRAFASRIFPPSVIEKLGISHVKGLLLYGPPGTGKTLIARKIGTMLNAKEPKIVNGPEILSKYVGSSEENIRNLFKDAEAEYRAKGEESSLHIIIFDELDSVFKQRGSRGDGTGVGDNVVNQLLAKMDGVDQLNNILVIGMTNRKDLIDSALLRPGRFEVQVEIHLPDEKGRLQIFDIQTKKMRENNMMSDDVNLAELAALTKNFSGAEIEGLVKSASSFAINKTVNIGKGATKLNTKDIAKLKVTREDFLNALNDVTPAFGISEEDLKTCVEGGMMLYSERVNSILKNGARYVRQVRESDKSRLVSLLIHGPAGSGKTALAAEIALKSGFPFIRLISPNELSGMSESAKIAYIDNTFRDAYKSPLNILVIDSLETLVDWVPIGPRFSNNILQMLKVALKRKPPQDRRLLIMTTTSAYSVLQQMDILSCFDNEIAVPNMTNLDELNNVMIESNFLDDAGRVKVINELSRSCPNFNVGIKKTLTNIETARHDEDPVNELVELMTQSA

T2: R SNARE Nyv1 (yeast (Saccharomyces Genome Database ids)), Q12255
T2 chain: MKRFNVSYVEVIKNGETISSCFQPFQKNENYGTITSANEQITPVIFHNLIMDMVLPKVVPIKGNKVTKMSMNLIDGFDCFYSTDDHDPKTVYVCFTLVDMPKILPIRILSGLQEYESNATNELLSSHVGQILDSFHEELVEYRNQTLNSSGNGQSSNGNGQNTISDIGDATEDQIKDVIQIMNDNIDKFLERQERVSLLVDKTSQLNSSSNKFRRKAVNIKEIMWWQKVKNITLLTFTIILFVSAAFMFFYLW

T3: Qa SNARE Vam3 (yeast (Saccharomyces Genome Database ids)), Q12241
T3 chain: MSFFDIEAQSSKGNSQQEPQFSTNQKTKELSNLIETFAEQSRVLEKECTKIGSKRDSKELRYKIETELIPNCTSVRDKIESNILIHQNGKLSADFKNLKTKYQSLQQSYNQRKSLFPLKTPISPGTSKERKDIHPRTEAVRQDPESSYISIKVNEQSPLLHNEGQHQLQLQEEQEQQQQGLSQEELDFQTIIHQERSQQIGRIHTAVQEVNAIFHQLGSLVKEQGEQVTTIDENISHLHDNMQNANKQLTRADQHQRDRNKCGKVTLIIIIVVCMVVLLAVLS

T4: Qb SNARE Vti1 (yeast (Saccharomyces Genome Database ids)), Q04338
T4 chain: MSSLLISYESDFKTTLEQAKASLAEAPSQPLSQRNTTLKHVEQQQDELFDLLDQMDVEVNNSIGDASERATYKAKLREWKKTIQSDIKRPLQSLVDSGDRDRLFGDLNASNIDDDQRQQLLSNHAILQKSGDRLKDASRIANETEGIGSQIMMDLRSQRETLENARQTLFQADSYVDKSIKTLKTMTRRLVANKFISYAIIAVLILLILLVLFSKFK

B1: Qc-SNARE Vam7 (protein, UniProt P32912 1-316)
chain: MAANSVGKMSEKLRIKVDDVKINPKYVLYGVSTPNKRLYKRYSEFWKLKTRLERDVGSTIPYDFPEKPGVLDRRWQRRYDDPEMIDERRIGLERFLNELYNDRFDSRWRDTKIAQDFLQLSKPNVSQEKSQQHLETADEVGWDEMIRDIKLDLDKESDGTPSVRGALRARTKLHKLRERLEQDVQKKSLPSTEVTRRAALLRSLLKECDDIGTANIAQDRGRLLGVATSDNSSTTEVQGRTNNDLQQGQMQMVRDQEQELVALHRIIQAQRGLALEMNEELQTQNELLTALEDDVDNTGRRLQIANKKARHFNNSA
B2: Sec17 (natural protein, UniProt P32602 1-292, looked up)
chain: MSDPVELLKRAEKKGVPSSGFMKLFSGSDSYKFEEAADLCVQAATIYRLRKELNLAGDSFLKAADYQKKAGNEDEAGNTYVEAYKCFKSGGNSVNAVDSLENAIQIFTHRGQFRRGANFKFELGEILENDLHDYAKAIDCYELAGEWYAQDQSVALSNKCFIKCADLKALDGQYIEASDIYSKLIKSSMGNRLSQWSLKDYFLKKGLCQLAATDAVAAARTLQEGQSEDPNFADSRESNFLKSLIDAVNEGDSEQLSEHCKEFDNFMRLDKWKITILNKIKESIQQQEDDLL
notes: Sec17, yeast, YBL050W; Plasmid from Schwartz and Merz, 2009; also called Sec17/SNAP; wild-type Sec17; source: E. coli Rosetta2(DE3), purified (chitin resin, DTT cleavage, dialysed into Rb150)

Experiments:
[1] = molecular target: T1, 3Sec17:Sec18 complex (yeast (Saccharomyces Genome Database ids)); assay: liposome floatation (density gradient) with immunoblot; protein-free VML liposomes, 1 mM Mg:ATPyS, where indicated 1 µM Sec17, 250 nM Sec18, 2 µM Qc; Rb150, 27°C 1 h; floated through Histodenz; bound proteins by Western blot; both purified
[2] = molecular target: T2, R SNARE Nyv1 (yeast (Saccharomyces …)); assay: liposome floatation (density gradient) with immunoblot; VML proteoliposomes with no SNAREs, single or several anchored SNAREs (1:2000 to lipid), 0.5 mM lipid, 1 µM added Sec17, Rb150, 0.04% defatted BSA, 1 mM MgCl2, 27°C 1 h; floated through Histodenz; bound Sec17 by Western blot; both purified; conditions: remark: other sources report otherwise
[3] = molecular target: T3, Qa SNARE Vam3 (yeast (Saccharomyces …)); assay: as above; conditions: remark: other sources report otherwise
[4] = molecular target: T4, Qb SNARE Vti1 (yeast (Saccharomyces …)); assay: as above; conditions: remark: other sources report otherwise

Binder | binding [1] | binding [2] | binding [3] | binding [4]
B1 | binds |  |  | 
B2 |  | no binding (tested: 1 µM Sec17) | no binding (tested: 1 µM Sec17) | no binding (tested: 1 µM Sec17)
